The supplement of paper PMC4604168 (melanoma cell lines)
The other results are listed elsewhere or left out. Repeats are few or missing, and single values can be far off.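 Imaging used 1,536-well plates; nuclei positive for cleaved PARP by antibody were divided by total DNA-stained nuclei to yield the apoptosis fraction. Doses for screening kept most cells viable, and cell lines differ markedly in resting and induced cleaved-PARP levels.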

The molecules below were run on 501Mel (assay: cleaved PARP positive nuclei fraction relative to DMSO control; melanoma cells; higher = more apoptosis). Details: library dose: low library concentration; 72 h.
With `NCC(=O)Nc1ccc(-n2nc(C(F)(F)F)cc2-c2ccc3c(ccc4ccccc43)c2)cc1` + COc1cc2ncnc(Nc3ccc(Oc4ccccc4)cc3)c2cc1OC [SrcI1] (first compound 1 µM, partner dose 2 µM) the “cleaved PARP positive nuclei fraction” value was 623%. `NCC(=O)Nc1ccc(-n2nc(C(F)(F)F)cc2-c2ccc3c(ccc4ccccc43)c2)cc1` + O=C1NC(=O)/C(=C/c2ccc(-c3ccc(F)cc3O)o2)S1 [AS252424] (first compound 1 µM, partner dose 1 µM) was tested, and the “cleaved PARP positive nuclei fraction” value was 369%. For `COc1cc2ncnc(Nc3ccc(Oc4ccccc4)cc3)c2cc1OC` + c1cc(-c2cnn3cc(-c4ccc(OCCN5CCCCC5)cc4)cnc23)ccn1 [Dorsomorphin] (first compound 2 µM, partner dose 0.4 µM), the “cleaved PARP positive nuclei fraction” value was 77.3%. `CCc1ccc(CCOc2ccc(CC3SC(=O)NC3=O)cc2)nc1` (stereo unspecified) [pioglitazone] + COC(=O)c1sccc1S(=O)(=O)Nc1ccc(Nc2ccccc2)cc1OC [GSK0660] (first compound 2 µM, partner dose 1 µM) was tested, and the “cleaved PARP positive nuclei fraction” value was 125%. `O=C(Nc1ccccc1)c1cc([N+](=O)[O-])ccc1Cl` + COc1ccc2c(c1)CCC1C2CCC2(C)C(NCCCCCCN3C(=O)C=CC3=O)CCC12 [U73122] (first compound 2 µM, partner dose 0.4 µM) was tested, and the “cleaved PARP positive nuclei fraction” value was 48.1%. In the case of `COc1cc2c(Oc3ccc4[nH]c(C)cc4c3F)ncnc2cc1OCCCN1CCCC1` [cediranib] + O=C1NC(=O)/C(=C/c2ccc(-c3ccc(F)cc3O)o2)S1 [AS252424] (first compound 0.4 µM, partner dose 1 µM), the “cleaved PARP positive nuclei fraction” value is reported as 120%. With `O=C(O)c1ccc(-c2c[nH]c3ncc(-c4ccccc4)cc23)cc1C1CCCC1` + CCc1ccc(CCOc2ccc(CC3SC(=O)NC3=O)cc2)nc1 [pioglitazone] (first compound 0.16 µM, partner dose 2 µM) the “cleaved PARP positive nuclei fraction” value was 63.6%. For `COc1cc2ncnc(Nc3ccc(Oc4ccccc4)cc3)c2cc1OC` + Oc1cc(-c2nc(-c3ccccc3)[nH]c2-c2ccncc2)ccc1Cl [L779450] (first compound 2 µM, partner dose 0.2 µM), the “cleaved PARP positive nuclei fraction” value was 45.6%. `Oc1nc(-c2ccc(C(F)(F)F)cc2)nc2c1CSCC2` + O=c1cc(-c2cccc3c2Sc2ccccc2S3)oc(N2CCOCC2)c1 [KU55933] (first compound 2 µM, partner dose 1 µM) was tested, and the “cleaved PARP positive nuclei fraction” value was 111%. In the case of `COc1ccc(-c2ccc3c(N4CCOCC4)nc(N4C[C@@H](C)O[C@@H](C)C4)nc3n2)cc1CO` + O=S(=O)(c1ccccc1)N(CC(F)(F)F)c1ccc(C(O)(C(F)(F)F)C(F)(F)F)cc1 [T0901317] (first compound 0.02 µM, partner dose 1.4 µM), the “cleaved PARP positive nuclei fraction” value is reported as 86.7%. `N#Cc1c(O)c2c(-c3ccc(-c4ccccc4O)cc3)csc2[nH]c1=O` + Cn1cc(/C=C2\C(=O)Nc3cccnc32)c2ccccc21 [GW441756] (first compound 2 µM, partner dose 0.4 µM) was tested, and the “cleaved PARP positive nuclei fraction” value was 62.1%. For `NCC(=O)Nc1ccc(-n2nc(C(F)(F)F)cc2-c2ccc3c(ccc4ccccc43)c2)cc1` + O=C(O)C(=O)Nc1sc2c(c1C(=O)O)CCNC2 [TCS401] (first compound 1 µM, partner dose 1.66667 µM), the “cleaved PARP positive nuclei fraction” value was 395%. With `NCC(=O)Nc1ccc(-n2nc(C(F)(F)F)cc2-c2ccc3c(ccc4ccccc43)c2)cc1` + CCc1ccc(CCOc2ccc(CC3SC(=O)NC3=O)cc2)nc1 [pioglitazone] (first compound 1 µM, partner dose 2 µM) the “cleaved PARP positive nuclei fraction” value was 138%. With `O=C(Nc1ccccc1)c1cc([N+](=O)[O-])ccc1Cl` + CC(C)CCN1c2nc(Nc3cc(F)c(O)c(F)c3)ncc2N(C)C(=O)C1C [BID1870] (first compound 2 µM, partner dose 0.2 µM) the “cleaved PARP positive nuclei fraction” value was 188%. `O=C(O)c1ccc(-c2c[nH]c3ncc(-c4ccccc4)cc23)cc1C1CCCC1` + Oc1cc(-c2nc(-c3ccccc3)[nH]c2-c2ccncc2)ccc1Cl [L779450] (first compound 0.16 µM, partner dose 0.2 µM) was tested, and the “cleaved PARP positive nuclei fraction” value was 228%. With `CN(C)S(=O)(=O)c1ccc2c(c1)/C(=C/c1cc3c([nH]1)CCCC3)C(=O)N2` + COc1ccc(COc2ccc(Cc3cnc(N)nc3N)cc2OC)cc1 [GW2580] (first compound 0.4 µM, partner dose 1 µM) the “cleaved PARP positive nuclei fraction” value was 74.6%.
